Measured values taken from PubChem BioAssay.
Values joined by “and” are separate entries in the source; they are usually repeats but may differ in a detail not shown here. Identical values can stand only once. The list shows a part of the results. Where no call is shown, the source marks the result inconclusive. For part of these data: Potency and affinity values are given separately.

assay: PubChem AID 1600; settings: yeast Parkinson's disease model, growth rescue; stronger effect = higher value

| Compound | score |
| --- | --- |
| CCCCOc1ccc(C(=O)CCN2CCCCC2)cc1 | 1.86 |
| NC(=O)c1cc[n+](CC2=C(C(=O)O)N3C(=O)C(NC(=O)C(c4ccccc4)S(=O)(=O)[O-])C3SC2)cc1 (stereo not given) | 0.327 |
| CCN(CC)CCOC(=O)C1(C2CCCCC2)CCCCC1 | 0.048 |
| CN/C(=C\[N+](=O)[O-])NCCSCc1ccc(CN(C)C)o1 | 0.075 |
| CC(=O)N(O)CCCCCNC(=O)CCC(=O)N(O)CCCCCNC(=O)CCC(=O)N(O)CCCCCN | -1.28 |
| CC(=O)[C@H]1CCC2C3C[C@H](C)C4=CC(=O)CC[C@]4(C)C3[C@@H](O)C[C@@]21C (stereo not given in full) | 0.899 |
| CC[C@H]1OC(=O)[C@H](C)[C@@H](O[C@H]2C[C@@](C)(OC)[C@@H](O)[C@H](C)O2)[C@H](C)[C@@H](O[C@@H]2O[C@H](C)C[C@H](N(C)C)[C@H]2O)[C@](C)(O)C[C@@H](C)/C(=N\OCOCCOC)[C@H](C)[C@@H](O)[C@]1(C)O | -0.927 |
| CN(C)CCCN1c2ccccc2CCc2ccccc21 | 1.09 |
| Cc1c(NC(=O)c2cccnc2)c(=O)n(-c2ccccc2)n1C | 0.425 |
| CCCOc1ccccc1-c1nc2n[nH]nc2c(=O)[nH]1 | -0.1 |
| O=C(O)c1cc(=O)c2c(OCC(O)COc3cccc4oc(C(=O)O)cc(=O)c34)cccc2o1 | 1.01 |
| Nc1ncnc2c1ncn2[C@@H]1O[C@H](CO)[C@@H](O)[C@@H]1O | 0.26 |
| Clc1ccccc1C(c1ccccc1)(c1ccccc1)n1ccnc1 | -1.58 |
| CCn1cc(C(=O)O)c(=O)c2cnc(N3CCNCC3)nc21 | 3.58 |
| COc1cc(OC)c2ccc(=O)oc2c1 | -0.431 |
| COc1cc(NS(=O)(=O)c2ccc(N)cc2)nc(OC)n1 | 5.66 |
| CN(C)CCCN1c2ccccc2Sc2ccccc21 | -0.594 |
| NC(=O)N1c2ccccc2C=Cc2ccccc21 | -0.042 |
| CC(=O)NC1SCCC1=O (stereo not given) | -0.75 |
| CO[C@H]1C[C@H](O[C@H]2[C@H](C)[C@@H](OC3O[C@H](C)C[C@H](N(C)C)[C@H]3O)[C@@H](C)C[C@]3(CO3)C(=O)[C@H](C)[C@@H](O)[C@@H](C)[C@@H](C)OC(=O)[C@@H]2C)O[C@@H](C)[C@@H]1O (stereo not given in full) | 0.809 |

assay: suppressors of mutant SOD1 cell death (AID 1601); settings: mutant SOD1 cell death rescue, 1 uM; stronger effect = higher value

| Compound | protection |
| --- | --- |
| Nc1ccc(C(=O)NCC(=O)O)cc1 | -22.6% |
| CC/C(=C(/CC)c1ccc(O)cc1)c1ccc(O)cc1 | -31.8% |
| CC[N+](C)(C)c1cccc(O)c1 | -18.3% |
| CN1CCN(C(c2ccccc2)c2ccc(Cl)cc2)CC1 (stereo not given) | -30.4% |
| CC(=O)CC(c1ccccc1)c1c(O)c2ccccc2oc1=O (stereo not given) | 9.02% |
| C1CCC(C(CC2CCCCN2)C2CCCCC2)CC1 (stereo not given) | 0.74% |
| CCC(=O)O[C@@H](O[P@](=O)(CCCCc1ccccc1)CC(=O)N1C[C@H](C2CCCCC2)C[C@H]1C(=O)O)C(C)C | 4.73% |
| CC(C)NCC(O)c1ccc2ccccc2c1 (stereo not given) | -26% |
| Fc1ccc(C(c2ccccc2)(c2ccccc2F)n2ccnc2)cc1 (stereo not given) | -22.5% and 7.71% |
| CC1=NN(c2ccccc2)C(=O)C1 | -8.67% |
| O=C(O)CN(CC(=O)O)Cc1cc2c(-c3ccccc3C(=O)O)c3cc(CN(CC(=O)O)CC(=O)O)c(=O)cc-3oc2cc1O | 306% |
| CC(C)(Oc1ccc(CCNC(=O)c2ccc(Cl)cc2)cc1)C(=O)O | -21% |
| Cc1cc(CC(=O)O)n(C)c1C(=O)c1ccc(Cl)cc1 | 28.8% |
| O=C1NS(=O)(=O)c2ccccc21 | -13.3% |
| CC(C(=O)O)c1ccc(-c2ccccc2)c(F)c1 (stereo not given) | -13.4% |
| Cc1ccc(S(=O)(=O)NC(=O)NN2CCCCCC2)cc1 | -31.4% |
| C[C@@H]1O[C@@H](OC[C@H]2O[C@@H](Oc3c(-c4ccc(O)c(O)c4)oc4cc(O)cc(O)c4c3=O)[C@H](O)[C@@H](O)[C@@H]2O)[C@H](O)[C@H](O)[C@H]1O | -0.99% |
| Cc1cc(O)cc(C)c1Cl | -16.4% |
| NC(=NCCCCCCN=C(N)/N=C(\N)Nc1ccc(Cl)cc1)/N=C(\N)Nc1ccc(Cl)cc1 | -8.29% |
| CCCCOc1ccc(C(=O)CCN2CCCCC2)cc1 | -24.2% |
| NC(=O)c1cc[n+](CC2=C(C(=O)O)N3C(=O)C(NC(=O)C(c4ccccc4)S(=O)(=O)[O-])C3SC2)cc1 (stereo not given) | 27.2% |
| CCN(CC)CCOC(=O)C1(C2CCCCC2)CCCCC1 | -18.2% |
| CN/C(=C\[N+](=O)[O-])NCCSCc1ccc(CN(C)C)o1 | -14.8% |
| CC(=O)N(O)CCCCCNC(=O)CCC(=O)N(O)CCCCCNC(=O)CCC(=O)N(O)CCCCCN | -5.51% |
| CC(=O)[C@H]1CCC2C3C[C@H](C)C4=CC(=O)CC[C@]4(C)C3[C@@H](O)C[C@@]21C (stereo not given in full) | 14.7% |
